Source: patent publication US20090186811A1 (priority 2004, published 2009)

Test: general procedure: Fmoc solid-phase peptide synthesis; PAL Peg-PS resin (amide resin); HCTU
Details: whole synthesis, 215 nm

Substance: Fluorescein-[Cys2,N-{(Ala-Arg-Arg-Arg-Ala-Ala-Arg-Ala)3}-Lys13,D-Cys27]PYY
- purity (crude or final not stated) (one disulfide bridge): 60.0%

Substance: Lys-Lys-Lys-Lys-Lys-Lys-PYY25-36
- purity (crude or final not stated): 91.9%

Substance: [Cys2,D-Cys27]PYY
- purity (crude or final not stated): 98.3%

Substance: [Cys2,D-Cys27]PYY2-36
- purity (crude or final not stated): 90.0%

Substance: [Cys2,Ile3,D-Cys27,Val31]NPY
- purity (crude or final not stated): 97.8%

Substance: [Cys2,N-(8-(8-gammaglutamoylamino-octanoylamino)-octanoyl)-Lys13,D-Cys27]PYY
- purity (crude or final not stated): 90.0%

Substance: [Cys2,N-{N′-(21-amino-4,7,10,13,16,19-hexaoxaheneicosanoyl)}-gammaglutamoyl-Lys13,D-Cys27]PYY
- purity (crude or final not stated) (HPLC, Vydac C18 Peptide-Protein column, 0.05% TFA water/MeCN): 85.0%

Substance: [D-Ala1]PYY
- purity (crude or final not stated): 95.2%
